Assay results published in the supplement of paper PMC10735217.
Counter-ions that a name gives are not always drawn. The list shows a part of the results. Single values are uncertain here, since repeats match poorly.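 Human kidney-derived cells stably carry a construct in which eight TEAD-binding elements drive luciferase, measured by luminescence in a drug-repurposing library screen. A hit is any compound whose signal exceeds the plate mean by more than five robust Z scores.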

Test system: HEK293A TEAD-LUC reporter
Assay: TEAD-luciferase reporter activity (YAP activation), robust Z score vs plate; higher = stronger YAP/TEAD activation
Conditions: 24 h

Row | Compound | TEAD-luciferase reporter activity (compound concentration: 200 nM) | TEAD-luciferase reporter activity (compound concentration: 2 uM) | TEAD-luciferase reporter activity (compound concentration: 10 uM)
1 | CCS(=O)(=O)c1ccc2[nH]c(Oc3ccc(-c4ccccc4)nc3)nc2c1 | inactive: -0.657 | inactive: 2.08 | inactive: 0.77
2 | CCOC(=O)CNC(=O)CCCCSc1[nH]cnc2ncnc1-2 [butocin] | inactive: 4.74 | inactive: -0.748 | inactive: -0.947
3 | O=C1c2cc(Cl)ccc2OC2CCON12 (stereo unspecified) [seclazone] | active: 5.36 | inactive: 3.14 | inactive: 0.534
4 | CCOc1cc2ncc(C#N)c(Nc3ccc(F)c(Cl)c3)c2cc1NC(=O)/C=C/CN(C)C [pelitinib] | inactive: -0.329 | inactive: -1.34 | inactive: -1.08
5 | OC(c1ccccc1)(c1ccccc1)[C@@H]1C[C@H]1c1ccncc1 | inactive: 0.73 | inactive: -0.266 | inactive: -0.536
6 | CNCCCN1c2ccccc2CCc2ccc(Cl)cc21 [chlordesipramine] | inactive: -0.66 | inactive: 2.7 | inactive: -0.478
7 | CN(C)CCSC(=O)N(c1ccccc1)c1ccccc1 | inactive: -1.79 | inactive: 0.695 | inactive: 0.95
8 | Nc1ncccc1-c1nc2ccc(-c3ccccc3)nc2n1-c1ccc(C2(N)CCC2)cc1 | inactive: 0.62 | inactive: -0.957 | inactive: 1.46
9 | [Cl][Pt-2]1([Cl])([Cl])([Cl])[NH2+]C2CCCCC2[NH2+]1 (stereo unspecified) [Ormaplatin] | inactive: -1.53 | inactive: -1.05 | inactive: 1.36
10 | NC(=O)N/N=C/c1ccc(Oc2ccc(F)cc2)cc1 | inactive: -0.285 | inactive: -1.94 | inactive: -0.0676
11 | O[C@@H]1[C@H](O)[C@@H](CSc2ccccc2F)O[C@H]1n1cnc2c(N[C@@H]3CCC[C@H]3O)ncnc21 | inactive: -1.84 | inactive: -0.302 | inactive: -0.11
12 | CC(=O)NC[C@H]1CN(c2ccc(C3=CCN(C(=O)CO)CC3)c(F)c2)C(=O)O1 | inactive: -1.82 | inactive: -1.68 | inactive: 1.5
13 | NC(=O)c1cnccn1 [Pyrazinamide] | inactive: 2.01 | inactive: -1.46 | inactive: -0.928
14 | O=C(NC1CC1)c1cn(-c2cccc(C#Cc3ccc[n+]([O-])c3)c2)c2ncccc2c1=O | inactive: -1.66 | inactive: -0.878 | inactive: -1.38
15 | COc1ccc(-c2noc(CC(=O)O)c2-c2ccc(OC)cc2)cc1 [mofezolac] | inactive: -1.9 | inactive: 1.45 | inactive: 1.92
16 | O=C(O)CCC(=O)N1Cc2ccccc2CC2(CCCCN2Cc2ccccc2)C1 (stereo unspecified) | inactive: 0.875 | – | inactive: 2.15
17 | Cn1cncc1[C@](N)(c1ccc(Cl)cc1)c1ccc2c(c1)c(-c1cccc(Cl)c1)cc(=O)n2C [tipifarnib] | inactive: 2.67 | inactive: 1.75 | inactive: -0.0915
18 | CCOC(=O)Cc1cc(Cl)c(Oc2ccc(C(=O)NC(C)(C)C)cc2NS(=O)(=O)c2c(Cl)cccc2Cl)cc1F | inactive: -0.759 | inactive: 0.39 | inactive: 1.47
19 | CCOc1ccc(Cc2cc([C@@H]3O[C@H](CO)[C@@H](O)[C@H](O)[C@H]3O)ccc2Cl)cc1 [Dapagliflozin] | inactive: -2.34 | inactive: -0.753 | inactive: -0.993

Row | Compound | TEAD-luciferase reporter activity (compound concentration: 200 nM) | TEAD-luciferase reporter activity (compound concentration: 2 uM) | TEAD-luciferase reporter activity (compound concentration: 10 uM)
20 | O=C(O)COc1ccc(C(=O)CNC(=O)c2cc3c(s2)CCNC3)cc1OCC(=O)O | inactive: -0.159 | inactive: -0.902 | active: 5.11
21 | C[N+]1(C)[C@@H]2C[C@@H](OC(=O)C(O)(c3cccs3)c3cccs3)C[C@H]1[C@@H]1O[C@@H]12 [Tiotropium Bromide hydrate] | inactive: -1.78 | – | inactive: 1.04
22 | C[N+]1(C)[C@@H]2C[C@@H](OC(=O)C(O)(c3cccs3)c3cccs3)C[C@H]1[C@@H]1O[C@@H]12 [tiotropium bromide] | – | inactive: -1.53 | –
23 | Cc1c(O)c(C)c2sc(NCc3ccc(S(N)(=O)=O)cc3)nc2c1C | inactive: -1.51 | inactive: -0.843 | inactive: -1.43
24 | COC[C@@H](c1ccc(C(F)(F)F)cc1)N1CCN(C2(C)CCN(C(=O)c3c(C)ncnc3C)CC2)C[C@@H]1C [Vicriviroc Malate] | inactive: -0.493 | inactive: -1.57 | inactive: 1.06
25 | CC(=O)OC1C(=O)N(CCN(C)C)c2ccc(C)cc2SC1c1ccc(C)cc1 (stereo unspecified) | inactive: 0.0304 | inactive: -0.264 | inactive: 1.55
26 | NC(N)C(=O)c1ccc2c(c1)OCO2 | inactive: -0.342 | inactive: -1.7 | inactive: 0.754
27 | OCc1ccc(CO)o1 | inactive: -1.05 | inactive: -1.03 | inactive: 0.882
28 | Nc1ccc(S(=O)(=O)Nc2ccccn2)cc1 | inactive: 1.34 | inactive: -1.29 | inactive: -0.597
29 | CC(C)c1nc(N(C)S(C)(=O)=O)nc(-c2ccc(F)cc2)c1/C=C/[C@@H](O)C[C@@H](O)CC(=O)O [rosuvastatin calcium] | inactive: -2.15 | inactive: -0.671 | inactive: 0.631
30 | CC(CC(=O)c1ccc(-c2ccccc2)cc1)C(=O)O (stereo unspecified) [metbufen] | inactive: -0.741 | inactive: 0.941 | inactive: 1.43
31 | COc1ccc2c(c1)C(OC(C)C)=C(C(N)=O)S2=O (stereo unspecified) | inactive: -2.29 | inactive: 1.5 | inactive: 0.458
32 | CCCc1nn(C)c2c(=O)[nH]c(-c3cc(S(=O)(=O)N4CCN(CCOC(=O)OCCN5CCN(S(=O)(=O)c6ccc(OCC)c(-c7nc8c(CCC)nn(C)c8c(=O)[nH]7)c6)CC5)CC4)ccc3OCC)nc12 [Lodenafil carbonate] | inactive: -0.478 | inactive: -0.843 | inactive: -0.699
33 | Cc1nn(CCOc2ccc(CC3SC(=O)NC3=O)cc2)c(=O)c2ccccc12 (stereo unspecified) | inactive: -0.873 | inactive: -0.957 | inactive: 1.56
34 | Cc1cc(-c2ccccc2)c(C(=O)C(=O)Nc2ccc(N3CCN(c4ncc(F)cn4)CC3)cc2)n1C | inactive: 0.106 | inactive: -0.727 | inactive: -1.68
35 | C1=C(C=C2NCCN2)CCc2ccccc21 [Napamezole] | inactive: 1.8 | inactive: -0.954 | inactive: 2.35
36 | Cc1cc(Cn2cnc3c2C[C@@H](C(=O)O)N(C(=O)C(c2ccccc2)c2ccccc2)C3)ccc1N(C)C | inactive: 0.0306 | inactive: -1.77 | inactive: -1.36
37 | NC1CONC1=O [D-cycloserine, Searle] | inactive: -0.0402 | inactive: -0.633 | active: 8.64
38 | CC(C)c1cc(N2CC[C@@H](N)C2)nc(N)n1 | inactive: -0.711 | inactive: 1.82 | inactive: -1.71

Row | Compound | TEAD-luciferase reporter activity (compound concentration: 200 nM) | TEAD-luciferase reporter activity (compound concentration: 2 uM) | TEAD-luciferase reporter activity (compound concentration: 10 uM)
39 | O=C(c1ccc(Cl)cc1)N1CCC(n2c(=O)[nH]c3ccccc32)CC1 | inactive: 1.35 | – | –
40 | CN(C)CC(CN1c2ccccc2Sc2ccccc21)N(C)C (stereo unspecified) | inactive: -0.186 | inactive: 1.27 | inactive: -0.163
41 | COC(=O)/C=C/C(=O)OCCN1C(=O)CCC1=O | inactive: -1.21 | inactive: -0.615 | inactive: 0.134
42 | CCOC(=O)c1ccc(OCCC2CCN(c3ccc(C)nn3)CC2)cc1 [Pirodavir] | inactive: -0.196 | inactive: 1.13 | inactive: -1.08
43 | CCCc1c([C@@H]2C[C@H]2c2ccccc2C)oc2ccc(C(=O)O)cc2c1=O | inactive: -0.615 | inactive: 0.0547 | inactive: -0.182
44 | CNc1c2c(nn1C)CCCC2 | inactive: -1.69 | inactive: 1.29 | inactive: -1.37
45 | CCOCCc1c(-c2ccccc2)nc(N)n2ncnc12 [bemitradine] | inactive: -0.531 | inactive: 0.48 | inactive: 0.496
46 | O=C(C1CCCCC1)N1CC(=O)N2CCc3ccccc3C2C1 (stereo unspecified) [praziquantel] | – | inactive: -0.455 | –
47 | O=C(C1CCCCC1)N1CC(=O)N2CCc3ccccc3C2C1 (stereo unspecified) | inactive: -0.297 | – | inactive: 0.729
48 | Cc1cccc(-c2[nH]c(CNc3ccccc3F)nc2-c2ccc3ncnn3c2)n1 | inactive: -1.72 | inactive: 2.54 | inactive: -0.939
49 | NC(=S)N/N=C/c1ncccc1NC(=O)OCc1cc(F)ccc1OP(=O)(O)O | inactive: -1.55 | inactive: -1.2 | inactive: 0.448
50 | O=C(c1cccnc1)N1CCN2C(=O)c3ccncc3C12c1ccc(Cl)cc1 (stereo unspecified) | inactive: -1.09 | inactive: -0.000715 | inactive: 2.42
51 | Cc1cc(CCCCCOc2c(Cl)cc(C3=NCCO3)cc2Cl)on1 | inactive: -0.694 | inactive: -0.00323 | inactive: 0.845
52 | CCOc1cc(CNc2cnnc(O)c2Cl)ccc1OC | inactive: 0.181 | inactive: 1.02 | inactive: -0.486
53 | Cc1cnc(Nc2ccc(OCCN3CCCC3)cc2)nc1Nc1cccc(S(=O)(=O)NC(C)(C)C)c1 [Fedratinib] | inactive: 0.617 | inactive: -0.843 | inactive: 1.45
54 | COc1ccc(CCN(C)CCCN2Cc3cc(OC)c(OC)cc3C2=O)cc1OC [Falipamil] | inactive: 0.101 | inactive: -0.406 | inactive: 0.259
55 | CC[C@]1(O)C[C@H]2CN(CCc3c([nH]c4ccccc34)[C@@](C(=O)OC)(c3cc4c(cc3OC)N(C)[C@H]3[C@@](O)(C(=O)OC)[C@H](OC(C)=O)[C@]5(CC)C=CCN6CC[C@]43[C@@H]65)C2)C1 [Vinblastine sulfate] | – | inactive: -0.762 | –
56 | CC[C@]1(O)C[C@H]2CN(CCc3c([nH]c4ccccc34)[C@@](C(=O)OC)(c3cc4c(cc3OC)N(C)[C@H]3[C@@](O)(C(=O)OC)[C@H](OC(C)=O)[C@]5(CC)C=CCN6CC[C@]43[C@@H]65)C2)C1 [Vinblastine sulfate salt] | inactive: 4.36 | – | inactive: -0.685

An excerpt from above, reduced to TEAD-luciferase reporter activity (compound concentration: 200 nM).
Row	Compound	TEAD-luciferase reporter activity (compound concentration: 200 nM)
11	O[C@@H]1[C@H](O)[C@@H](CSc2ccccc2F)O[C@H]1n1cnc2c(N[C@@H]3CCC[C@H]3O)ncnc21	inactive: -1.84
19	CCOc1ccc(Cc2cc([C@@H]3O[C@H](CO)[C@@H](O)[C@H](O)[C@H]3O)ccc2Cl)cc1 [Dapagliflozin]	inactive: -2.34
51	Cc1cc(CCCCCOc2c(Cl)cc(C3=NCCO3)cc2Cl)on1	inactive: -0.694
54	COc1ccc(CCN(C)CCCN2Cc3cc(OC)c(OC)cc3C2=O)cc1OC [Falipamil]	inactive: 0.101
